Taken from: PubChem BioAssay AID1224826 (NIAID, 2016)
This is an unselected part of about 17,000 reagents. Over the whole deposit, about 1,110 (6.6%) were called active. 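Active means lowered or raised reporter signal; replicate intensities are raw and not normalised per plate.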 Entries without a mark were called inactive. Reagents against one gene are numbered here. Further read-outs or replicates are left out here.

Assay: 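Regulators of Tlr4 signalling leading to Tnf-alpha expression in macrophages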 (primary screen)
Cells: RAW264.7 G9 macrophages from mouse bearing reporters for p65 (GFP) and the Tnf promoter (mCherry)
Reagent: siRNA pool against mouse genes, 100 nM
Time to read-out: 16 h of LPS stimulation, after 2 days of siRNA transfection
Challenge: bacterial lipopolysaccharide (Salmonella minnesota R595), 10 ng/ml
Measurement: 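Imaged Tnf reporter mCherry in nuclei, minus background, normalised per plate to the median and expressed as robust z-scores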
Direction: Tnf reporter robust z-score: higher = stronger Tnf promoter reporter signal after LPS
Hit rule: 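a well counts as active at a score of -1.3 or below (Tlr4 knock-down control median) or above 3 (raised signal); controls and wells holding fewer than 50 cells are excluded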
Meaning of the calls: active = Tnf reporter clearly lowered or raised; inactive = no clear change in Tnf reporter

| Target gene | reagent | Tnf reporter robust z-score | fewer than 50 cells in well |
| --- | --- | --- | --- |
| Ctsw | 1 | 3.18 (active) | enough cells in well |
| Fech | 1 | -1.21 | enough cells in well |
| Tpr | 1 | -1.71 (active) | enough cells in well |
| Tmlhe | 1 | – | fewer than 50 cells per well; well left out of calls |
| Trim45 | 1 | – | fewer than 50 cells per well; well left out of calls |
| Bend7 | 1 | -0.61 | enough cells in well |
| Nat3 | 1 | 1 | enough cells in well |
| Eif4a1 | 1 | -1.52 (active) | enough cells in well |
| Or6c74 | 1 | -0.24 | enough cells in well |
| Smc1a | 1 | – | fewer than 50 cells per well; well left out of calls |
| Slx9 | 1 | 1.86 | enough cells in well |
| Phka1 | 1 | 0.86 | enough cells in well |
| Pbx1 | 1 | 0.56 | enough cells in well |
| Gspt1 | 1 | -1.73 (active) | enough cells in well |
| Tbx18 | 1 | 0 | enough cells in well |
| Tssk3 | 1 | 0.25 | enough cells in well |
| Tssk3 | 2 | 0.35 | enough cells in well |
| Asic1 | 1 | 0.94 | enough cells in well |
| Pex3 | 1 | 0.05 | enough cells in well |
| Semg1 | 1 | 0.69 | enough cells in well |
| Hapln1 | 1 | -0.64 | enough cells in well |
| Vmn1r236 | 1 | 2.74 | enough cells in well |
| Ngfr | 1 | -0.18 | enough cells in well |
| Src | 1 | – | fewer than 50 cells per well; well left out of calls |
| Ms4a6d | 1 | -0.35 | enough cells in well |
| Ms4a6d | 2 | 0.64 | enough cells in well |
| Gpr22 | 1 | -0.2 | enough cells in well |
| Chst5 | 1 | 0.26 | enough cells in well |
| Wdpcp | 1 | -0.51 | enough cells in well |
| Ufm1 | 1 | – | fewer than 50 cells per well; well left out of calls |
| Mrtfa | 1 | -0.83 | enough cells in well |
| Fam117a | 1 | 0.28 | enough cells in well |
| Nlrx1 | 1 | -0.19 | enough cells in well |
| Vgll1 | 1 | -2.02 (active) | enough cells in well |
| Tmem183a | 1 | 0.23 | enough cells in well |
| Fam216a | 1 | – | fewer than 50 cells per well; well left out of calls |
| Krtap19-3 | 1 | 1.63 | enough cells in well |
| Krt75 | 1 | 0.03 | enough cells in well |
| Pbld2 | 1 | 0.28 | enough cells in well |
| Defa3 | 1 | 0.39 | enough cells in well |
| Trim37 | 1 | -0.24 | enough cells in well |
| A530016L24Rik | 1 | -0.18 | enough cells in well |
| Lmtk2 | 1 | 3.66 (active) | enough cells in well |
| Tmem59 | 1 | -2.01 (active) | enough cells in well |
| Mypop | 1 | – | fewer than 50 cells per well; well left out of calls |
| Ror1 | 1 | -0.07 | enough cells in well |
| Mkrn3 | 1 | 0.56 | enough cells in well |
| Tslp | 1 | -0.57 | enough cells in well |
| Acer1 | 1 | 0.65 | enough cells in well |
| Ccdc142 | 1 | 1.24 | enough cells in well |
| B3gnt3 | 1 | 0.95 | enough cells in well |
| Akp3 | 1 | 1.95 | enough cells in well |
| Ushbp1 | 1 | 0.67 | enough cells in well |
| Adamts3 | 1 | 1.35 | enough cells in well |
| Cib3 | 1 | 0.12 | enough cells in well |
| Eif3a | 1 | -1.3 (active) | enough cells in well |
| Rnft1 | 1 | 0.87 | enough cells in well |
| Or9s27 | 1 | 0.04 | enough cells in well |
